From PMC8725472
Results are given in words; binding and its absence hold for the method and conditions named. In cells and extracts the contact can be indirect. Some binding calls cover weakened binding; strength is not graded here.

The chains behind the UniProt entries cited, without tags or fusion partners. Residues count along the entry.
UniProt P37173, residues 23-567: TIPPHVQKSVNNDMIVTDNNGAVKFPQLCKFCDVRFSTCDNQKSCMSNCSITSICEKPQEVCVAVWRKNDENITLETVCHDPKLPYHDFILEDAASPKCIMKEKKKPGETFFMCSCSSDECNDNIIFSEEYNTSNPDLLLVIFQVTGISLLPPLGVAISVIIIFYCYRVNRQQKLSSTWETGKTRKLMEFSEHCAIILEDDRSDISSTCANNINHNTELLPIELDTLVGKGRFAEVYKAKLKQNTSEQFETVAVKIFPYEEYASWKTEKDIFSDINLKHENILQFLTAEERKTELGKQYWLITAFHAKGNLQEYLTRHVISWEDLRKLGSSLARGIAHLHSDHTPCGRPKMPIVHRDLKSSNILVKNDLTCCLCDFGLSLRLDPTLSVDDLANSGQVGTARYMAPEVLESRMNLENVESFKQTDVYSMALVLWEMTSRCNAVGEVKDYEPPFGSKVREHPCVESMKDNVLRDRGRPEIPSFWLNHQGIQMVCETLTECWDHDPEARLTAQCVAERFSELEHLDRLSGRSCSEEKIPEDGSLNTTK
UniProt Q8IX30, residues 21-993: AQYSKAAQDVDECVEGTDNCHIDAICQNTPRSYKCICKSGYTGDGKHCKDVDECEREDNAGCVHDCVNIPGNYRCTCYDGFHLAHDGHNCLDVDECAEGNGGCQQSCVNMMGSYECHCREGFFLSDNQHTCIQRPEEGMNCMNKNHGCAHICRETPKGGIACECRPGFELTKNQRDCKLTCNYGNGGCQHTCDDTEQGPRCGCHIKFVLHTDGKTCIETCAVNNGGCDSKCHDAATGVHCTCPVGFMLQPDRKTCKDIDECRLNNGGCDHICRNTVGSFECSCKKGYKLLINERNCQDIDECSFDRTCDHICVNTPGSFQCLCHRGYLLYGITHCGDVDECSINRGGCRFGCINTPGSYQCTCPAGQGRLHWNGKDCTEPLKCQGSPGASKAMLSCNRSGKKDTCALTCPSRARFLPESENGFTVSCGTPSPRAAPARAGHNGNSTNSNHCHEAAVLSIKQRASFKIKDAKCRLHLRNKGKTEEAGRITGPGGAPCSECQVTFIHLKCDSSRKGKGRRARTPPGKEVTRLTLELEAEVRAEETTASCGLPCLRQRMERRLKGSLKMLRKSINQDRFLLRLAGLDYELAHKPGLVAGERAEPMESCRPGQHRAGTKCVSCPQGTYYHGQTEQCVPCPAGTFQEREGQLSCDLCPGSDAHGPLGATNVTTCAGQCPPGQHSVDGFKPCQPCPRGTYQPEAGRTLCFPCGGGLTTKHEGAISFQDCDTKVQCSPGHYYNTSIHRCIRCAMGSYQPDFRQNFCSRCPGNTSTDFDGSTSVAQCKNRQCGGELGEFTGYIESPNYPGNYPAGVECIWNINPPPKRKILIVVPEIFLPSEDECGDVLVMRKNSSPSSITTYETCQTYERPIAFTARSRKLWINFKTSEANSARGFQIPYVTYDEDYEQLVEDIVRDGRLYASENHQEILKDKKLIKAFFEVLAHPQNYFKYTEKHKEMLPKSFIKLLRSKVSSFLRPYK

Target: type 2 TGFβ receptor (TGFβIIR) (human (endogenous in Bel7404)) (UniProt P37173)
Assay: co-IP; 1 mg extracted cell protein incubated with 2 µg DDDDK (FLAG) tag and TGFβIIR antibody overnight at 4 °C, then 12 h with Protein A/G agarose beads at 4 °C; washed three times with IP lysis buffer; SDS-PAGE and western blotting

## signal peptide-CUB-EGF-like domain-containing protein3 (SCUBE3), Flag-tagged (from UniProt Q8IX30-1 21-993)
  binding: binds
